Results published in PubChem BioAssay AID540275 (National Center for Advancing Translational Sciences (NCATS), 2011).
Among all 320,000 compounds or so, about 620 (0.19%) were called active. This list was built around the results that the source calls inconclusive (neither active nor inactive); the mix of calls is not that of the screen. No stated cut-off is given here; in the data, active means activation above about 80%; inconclusive means between about 30% and that limit; inactive means weaker than that.

The chains behind the UniProt entries cited, without tags or fusion partners.
UniProt Q8NER1, whole entry, looked up: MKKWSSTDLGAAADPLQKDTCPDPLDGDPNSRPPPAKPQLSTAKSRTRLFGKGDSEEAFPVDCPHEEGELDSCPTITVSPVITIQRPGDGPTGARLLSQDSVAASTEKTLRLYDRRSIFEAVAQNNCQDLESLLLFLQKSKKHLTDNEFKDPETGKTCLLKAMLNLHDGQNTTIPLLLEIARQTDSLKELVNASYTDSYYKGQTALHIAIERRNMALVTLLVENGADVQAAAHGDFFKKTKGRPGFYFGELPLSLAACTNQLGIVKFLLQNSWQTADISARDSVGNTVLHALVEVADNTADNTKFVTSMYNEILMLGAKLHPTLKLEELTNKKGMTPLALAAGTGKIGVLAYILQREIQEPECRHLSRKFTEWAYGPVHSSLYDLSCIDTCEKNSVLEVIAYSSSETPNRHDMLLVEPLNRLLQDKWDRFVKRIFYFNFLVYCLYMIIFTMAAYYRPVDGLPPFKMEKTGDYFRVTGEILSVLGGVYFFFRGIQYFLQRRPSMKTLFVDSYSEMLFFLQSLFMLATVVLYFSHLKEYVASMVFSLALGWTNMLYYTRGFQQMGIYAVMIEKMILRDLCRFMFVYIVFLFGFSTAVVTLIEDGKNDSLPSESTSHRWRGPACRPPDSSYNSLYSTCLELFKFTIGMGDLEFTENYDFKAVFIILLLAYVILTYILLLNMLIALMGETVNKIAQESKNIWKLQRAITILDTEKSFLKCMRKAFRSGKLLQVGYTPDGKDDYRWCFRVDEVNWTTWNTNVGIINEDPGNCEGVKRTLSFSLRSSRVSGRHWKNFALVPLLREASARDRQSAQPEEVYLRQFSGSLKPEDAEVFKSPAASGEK

Each molecule was assayed against Transient receptor potential cation channel subfamily V member 1 (Homo sapiens) (UniProt Q8NER1) (assay: HTS Assay for Compounds that Act as Agonists of the Vanilloid Receptor 1). Details: TRPV1-expressing cells, Fluo-8 calcium influx, agonist mode; at 8.33 µM, hits give high values.
Outline: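 TRPV1-expressing cells were cultured overnight at 35.5C and loaded with Fluo-8 calcium dye for 40 to 90 min at room temperature. After a 10 s baseline, compound was added and calcium influx was read kinetically for 3 min (ex 480/em 520 nm).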
Further: 0% is about no effect.

SMILES | activation
COc1cc(C(=O)ON=C2C3CC4CC(C3)CC2C4)cc(OC)c1OC | inconclusive: 33.6%
CCOc1ccc(N(CC(=O)NC2CC3CCC2C3)S(=O)(=O)c2ccc(C)cc2)cc1 (configuration not stated) | inconclusive: 42.4%
Cc1ccc(C2(C)CC(C)(C)N(C(=O)CSc3nnc(C)s3)c3ccccc32)cc1 (configuration not stated) | inconclusive: 30.7%
CCN(CC)S(=O)(=O)c1ccc(NC(=O)c2ccc(Cl)nc2)cc1 | inconclusive: 44.5%
Nc1cc(N)nc(SCC(=O)N2CCN(S(=O)(=O)c3ccccc3)CC2)n1 | inactive: 0.683%
COc1cc(C2Nc3ccccc3C(=O)N2c2ccccc2OC)ccc1O (configuration not stated) | inactive: 1.03%
CCNC(=S)N1CCN(c2nc(-c3ccc(F)cc3)cs2)CC1 | inconclusive: 44.8%
Cn1nnnc1SCSc1nnnn1C | inactive: 1.43%
COc1ccccc1-c1cc(C(=O)N/N=C/c2cccs2)c2ccccc2n1 | inconclusive: 31.1%
CC(C)(C)n1nnnc1C(c1ccc(Cl)cc1)N(Cc1cccnc1)Cc1ccco1 (configuration not stated) | inconclusive: 37%
C/C(=C\c1ccccc1)C(=O)NCCc1ccccc1 | inconclusive: 33%
COc1cc(OC)cc(C(=O)Nc2cccnc2)c1 | inactive: 4.29%
CCn1c(SCC(=O)N2CCOCC2)nc2sc3c(c2c1=O)CCCC3 | inconclusive: 47.6%
CCN(CC(=O)NC(=O)Nc1ccccc1F)Cc1ccccc1 | inconclusive: 37.6%
O=C(CCS(=O)(=O)c1cccc2nonc12)NCc1ccc(Cl)cc1 | inconclusive: 33.6%
Cc1ccc(C(=O)Nc2ccc(SC(F)F)cc2)s1 | active: 85.8%
O=C(CNC(=S)N(Cc1ccc(F)cc1)C1CCCCC1)NC1CC1 | inconclusive: 61.9%
COc1cc(/C=N/NC(=O)c2cc3ccccc3[nH]2)ccc1O | inconclusive: 76.8%
CN(C(=O)COc1cc(C(F)(F)F)nn1C)c1ccccc1 | inactive: -0.123%
Cc1csc(SCC(=O)c2cc(C)n(Cc3cccs3)c2C)n1 | inconclusive: 42.5%
O=C(Nc1cccc(F)c1)Nc1ccc2c(c1)OCO2 | inconclusive: 45.9%
Cc1ccc(C(=O)OCc2nc3ccccc3s2)o1 | inconclusive: 37.5%
O=C(CSCc1ccc(F)cc1)N1CCN(c2ccccc2)CC1 | inconclusive: 48.1%

SMILES | activation
COc1ccc(CN2CCOCCOCCOCC2)cc1 | inactive: 3.02%
CCOc1c(/C=C(\C#N)C(N)=O)c2ccccc2n1CC | inactive: 6.66%
CCc1ccccc1-n1c(SCC(=O)NC)nnc1-c1ccco1 | inactive: 2.53%
COc1cccc(-c2nn(-c3ccccc3)cc2/C=C(\C#N)C(=O)NCCCn2ccnc2)c1 | inconclusive: 67.4%
COc1ccc(OC)c(CNc2nc3ccccc3n2CCN2CCCCC2)c1 | inconclusive: 47.5%
CC(C)CCN1C(=O)c2ccc(C(=O)Nc3cc(C(=O)O)cc(C(=O)O)c3)cc2C1=O | inactive: 1.64%
Cc1ccc(C(=O)N2CCN(c3ccc(NC(=O)c4cccs4)cc3)CC2)cc1 | inactive: 4.1%
CC(=O)Nc1ccc(Nc2cc(C)nc3c(-c4ccc(Cl)cc4)c(C)nn23)cc1 | inactive: -0.511%
CC(C)(C)Sc1ccc2nc3c(n2c1)CCCC3 | inconclusive: 79.6%
Cc1ccc(NC(=O)NCc2c(C)nn(C)c2C)cc1Cl | inconclusive: 43.5%
Cc1ccc2[nH]c3c(c2c1)CN(C(=O)CN1CCN(c2ccccn2)CC1)CC3 | inconclusive: 34%
Clc1cccc(N2CCN(c3nnnn3-c3ccccc3)CC2)c1 | inactive: 24.7%
CSc1ccc(CN(C)C(=O)C(Cc2ccccc2)NC(=O)c2ccccc2)cc1 (configuration not stated) | inconclusive: 31.1%
Cc1ccc(/C=C2/NC(=O)N(Cc3ccccc3)C2=O)s1 | inactive: -0.604%
Cc1cc(SCC(=O)c2ccc(O)c(O)c2)n2nc(C)c(-c3ccccc3)c2n1 | inconclusive: 43.6%
CCOC(=O)c1c(NC(=O)C(F)(OC)C(F)(F)F)sc(C(=O)N2CCCCC2)c1C (configuration not stated) | inconclusive: 50.4%
Cc1ccc(-n2ncc3c2ncn2c(C)nnc32)cc1C | inconclusive: 39.9%
CC1CCN(c2oc(-c3ccccc3F)nc2C#N)CC1 | inconclusive: 49.1%
CCSc1nc2ccccc2n1CC(N)=O | inactive: -4.52%
CCOC(=O)c1c(C)[nH]c(N=Nc2cccc(OC)c2)c1C | inconclusive: 51.8%
COc1ccc(C(=O)Nc2nc3ccc(OC)cc3s2)cc1 | inconclusive: 60.3%
O=C(c1cc(-c2cccc(Cl)c2)on1)N1CCOCC1 | inconclusive: 60.9%
COc1cccc(-c2csc(N3CCN(C(=S)Nc4ccccc4C)CC3)n2)c1 | inactive: 2.34%

SMILES | activation
CCC1CCc2sc(C(=O)NNC(=O)c3ccncc3)cc2C1 (configuration not stated) | inconclusive: 40.4%
O=C(CCC1CCCC1)N1CCN(C(=O)COc2ccccc2)CC1 | inconclusive: 32.5%
COc1cccc(C(=O)Nc2cc(OC)ccc2NC(=O)c2ccco2)c1 | inconclusive: 32.1%
O=C(Nc1ccc(N2CCCC2)c(Cl)c1)c1ccco1 | inconclusive: 56.8%
Cc1cc2oc(=O)cc(CN3CCCCC3)c2cc1C(C)C | inconclusive: 46.7%
O=C(c1cccs1)N1CCN=C1SCc1ccc(Cl)cc1 | inconclusive: 38.2%
CCC(C)c1ccc(OCC(=O)Nc2ccc3[nH]c(=O)[nH]c3c2)cc1 (configuration not stated) | inconclusive: 74.7%
Cc1cccc(Nc2nc(N3CCOCC3)nc(N3CCOCC3)n2)c1 | inactive: 4.55%
CCOC(=O)CC(NC(=O)CCS(=O)(=O)c1ccc2c(c1)n(C)c(=O)c(=O)n2C)c1ccc(C)cc1 (configuration not stated) | inconclusive: 53.7%
CCOc1ccccc1NS(=O)(=O)N(C)C | inactive: -1.32%
O=C(NCC1CCCO1)c1ccccc1-c1nc(-c2ccc(Cl)cc2)no1 (configuration not stated) | inconclusive: 36.8%
COc1ccccc1NC(=O)C(C)NC(c1ccccc1)c1ccccc1 (configuration not stated) | inconclusive: 44.3%
CCNC(=S)Nc1cc(-c2ccc(Cl)cc2)[nH]n1 | inactive: 0.638%
CN1C(=O)c2ccccc2N(C)C1c1ccccc1Cl (configuration not stated) | inactive: 1.99%
CCOc1ccccc1C1CC(=O)Nc2c1c(=O)n(C)c(=O)n2C (configuration not stated) | inactive: 2.78%
CCOC(=O)c1cc(NC(=O)c2ccccc2)c(=O)oc1-c1ccccc1 | inconclusive: 54.4%
CCN(CC)S(=O)(=O)c1ccc(NC2=NS(=O)(=O)c3ccccc32)cc1 | inconclusive: 62.2%
O=C(COC(=O)c1cccnc1Cl)NCCC1=CCCCC1 | inconclusive: 34.6%
S=C(Nc1cccnc1)NC1CCCCCCC1 | inconclusive: 60.7%
CC1(C)CC(NC(=O)Cc2ccccc2)CC(C)(C)N1 | inactive: -2.69%
CC(C)=CCCC(C)CN1CCC(n2nccc2NC(=O)C2CCCC2)CC1 (configuration not stated) | inconclusive: 36.4%
Cc1ccc(C(=O)N/N=C\c2c(C)nn(-c3ccccc3)c2Cl)cn1 | inconclusive: 35.1%
CC1CN(C(=O)CCC(=O)N2CCCCC2)c2cc(Cl)ccc2O1 (configuration not stated) | inconclusive: 48.3%

In a second layout: results already given.
SMILES	activation
COc1cccc(C(=O)Nc2cc(OC)ccc2NC(=O)c2ccco2)c1	inconclusive: 32.1%
O=C(Nc1ccc(N2CCCC2)c(Cl)c1)c1ccco1	inconclusive: 56.8%
Cc1cc2oc(=O)cc(CN3CCCCC3)c2cc1C(C)C	inconclusive: 46.7%
O=C(c1cccs1)N1CCN=C1SCc1ccc(Cl)cc1	inconclusive: 38.2%
CCC(C)c1ccc(OCC(=O)Nc2ccc3[nH]c(=O)[nH]c3c2)cc1 (configuration not stated)	inconclusive: 74.7%
Cc1cccc(Nc2nc(N3CCOCC3)nc(N3CCOCC3)n2)c1	inactive: 4.55%
CCOC(=O)CC(NC(=O)CCS(=O)(=O)c1ccc2c(c1)n(C)c(=O)c(=O)n2C)c1ccc(C)cc1 (configuration not stated)	inconclusive: 53.7%
CCOc1ccccc1NS(=O)(=O)N(C)C	inactive: -1.32%
O=C(NCC1CCCO1)c1ccccc1-c1nc(-c2ccc(Cl)cc2)no1 (configuration not stated)	inconclusive: 36.8%
COc1ccccc1NC(=O)C(C)NC(c1ccccc1)c1ccccc1 (configuration not stated)	inconclusive: 44.3%
CCNC(=S)Nc1cc(-c2ccc(Cl)cc2)[nH]n1	inactive: 0.638%
CN1C(=O)c2ccccc2N(C)C1c1ccccc1Cl (configuration not stated)	inactive: 1.99%
CCOc1ccccc1C1CC(=O)Nc2c1c(=O)n(C)c(=O)n2C (configuration not stated)	inactive: 2.78%
CCOC(=O)c1cc(NC(=O)c2ccccc2)c(=O)oc1-c1ccccc1	inconclusive: 54.4%
CCN(CC)S(=O)(=O)c1ccc(NC2=NS(=O)(=O)c3ccccc32)cc1	inconclusive: 62.2%
O=C(COC(=O)c1cccnc1Cl)NCCC1=CCCCC1	inconclusive: 34.6%
S=C(Nc1cccnc1)NC1CCCCCCC1	inconclusive: 60.7%
CC1(C)CC(NC(=O)Cc2ccccc2)CC(C)(C)N1	inactive: -2.69%
CC(C)=CCCC(C)CN1CCC(n2nccc2NC(=O)C2CCCC2)CC1 (configuration not stated)	inconclusive: 36.4%
Cc1ccc(C(=O)N/N=C\c2c(C)nn(-c3ccccc3)c2Cl)cn1	inconclusive: 35.1%

Further records follow.

SMILES | activation
Cc1ccc(/C=N/c2sc(Cc3ccccc3)c(C)c2C(N)=O)o1 | inconclusive: 40.8%
Clc1ccc(CSc2snnc2-c2ccccc2)c(Cl)c1 | inactive: 2.87%
Cc1ccc(NC(=O)C2C(c3ccccc3)C=CC(c3ccccc3)C2C(=O)O)cc1 (configuration not stated) | inactive: -2.43%
O=C(NCCOc1ccc(Cl)cc1)C1CCCCC1 | inconclusive: 32.3%
COc1ccc(NC(=O)c2cccn(CC=C(C)C)c2=O)cc1 | inconclusive: 71%
Cc1nc(-c2ccc(F)cc2)c(CC(=O)N(C)CC(=O)Nc2ccccc2Cl)s1 | inactive: -2.39%
COc1cc(/C=N/Nc2nc(Nc3ccccc3)nc(N3CCCCC3)n2)ccc1OCC(=O)O | inconclusive: 49.7%
Cc1ccc(S(=O)(=O)NCc2ccccc2)cc1C(=O)N1CC(C)CC(C)C1 (configuration not stated) | inconclusive: 44.7%
Clc1ccc(CNc2nc(CN3CCOCC3)nc3scc(-c4ccccc4)c23)cc1 | inconclusive: 33.1%
Cc1cc(C)cc(C(=O)Nc2ccc3[nH]c(=O)[nH]c3c2)c1 | inconclusive: 54.2%
Cc1ccc(NC(=O)C2CCN(c3cnccn3)CC2)cc1C | inconclusive: 38.2%
CCC[N+](CC#Cc1ccccc1)(CCC)CC(=O)OC | inactive: -1.98%
O=C(NCCc1ccccc1)c1cc(-c2ccco2)on1 | inconclusive: 31.8%
CC(C)(C)c1ccc(C(=O)N2CCN(c3ncccn3)CC2)cc1 | inconclusive: 43%
CC1CCCCN1S(=O)(=O)c1ccc(C(=O)Nc2sccc2C(N)=O)cc1 (configuration not stated) | inactive: 1.41%
Cc1nn(CCC(N)=S)c2nc(-c3cccs3)cc(C(F)(F)F)c12 | inconclusive: 38.3%
NS(=O)(=O)c1cccc(NC(=O)COC(=O)/C(=C/c2cccs2)c2cccs2)c1 | inconclusive: 76.2%
C=CCn1c(=O)/c(=C\c2ccccn2)s/c1=C(/C#N)C(=O)NCC1CCCO1 (configuration not stated) | inactive: 29.9%
O=C1c2cccc3c(N4CCCCC4)ccc(c23)C(=O)N1c1ccccn1 | inconclusive: 46.7%
O=C1C=C(c2ccccc2Oc2ccccc2)C[C@@H](c2ccc3c(c2)OCO3)C1 | inconclusive: 53.3%
Cc1c(C(=O)N2CCN(S(=O)(=O)c3ccc(F)cc3)CC2)oc2ccccc12 | inconclusive: 55.6%
CCCCOc1ccc(C(=O)Nc2ccc(N3CCN(C(C)=O)CC3)cc2)cc1 | inconclusive: 35.2%
S=C(NCCc1ccccc1)N1CCN(C(c2ccccc2)c2ccccc2)CC1 | inconclusive: 48.8%
